The other results are listed elsewhere or left out.

The chains behind the UniProt entries cited, without tags or fusion partners. Where a name states a change or a piece, a line headed by the entry shows the natural chain unless it says otherwise.
UniProt P49368: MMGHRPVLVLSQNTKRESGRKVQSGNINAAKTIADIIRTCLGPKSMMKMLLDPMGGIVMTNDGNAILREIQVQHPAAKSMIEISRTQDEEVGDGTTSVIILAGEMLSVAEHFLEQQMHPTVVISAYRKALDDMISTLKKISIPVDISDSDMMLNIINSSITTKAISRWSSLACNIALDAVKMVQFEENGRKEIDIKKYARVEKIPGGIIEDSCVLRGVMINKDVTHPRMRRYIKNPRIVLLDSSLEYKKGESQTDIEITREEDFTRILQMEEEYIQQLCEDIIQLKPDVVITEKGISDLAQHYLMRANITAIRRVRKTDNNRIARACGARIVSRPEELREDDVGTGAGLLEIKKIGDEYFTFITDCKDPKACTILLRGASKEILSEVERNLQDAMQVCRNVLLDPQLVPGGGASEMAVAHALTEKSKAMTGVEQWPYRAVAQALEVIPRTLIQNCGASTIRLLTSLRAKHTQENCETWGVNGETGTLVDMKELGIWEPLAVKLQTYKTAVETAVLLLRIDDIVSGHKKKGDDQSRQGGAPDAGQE
UniProt P17655: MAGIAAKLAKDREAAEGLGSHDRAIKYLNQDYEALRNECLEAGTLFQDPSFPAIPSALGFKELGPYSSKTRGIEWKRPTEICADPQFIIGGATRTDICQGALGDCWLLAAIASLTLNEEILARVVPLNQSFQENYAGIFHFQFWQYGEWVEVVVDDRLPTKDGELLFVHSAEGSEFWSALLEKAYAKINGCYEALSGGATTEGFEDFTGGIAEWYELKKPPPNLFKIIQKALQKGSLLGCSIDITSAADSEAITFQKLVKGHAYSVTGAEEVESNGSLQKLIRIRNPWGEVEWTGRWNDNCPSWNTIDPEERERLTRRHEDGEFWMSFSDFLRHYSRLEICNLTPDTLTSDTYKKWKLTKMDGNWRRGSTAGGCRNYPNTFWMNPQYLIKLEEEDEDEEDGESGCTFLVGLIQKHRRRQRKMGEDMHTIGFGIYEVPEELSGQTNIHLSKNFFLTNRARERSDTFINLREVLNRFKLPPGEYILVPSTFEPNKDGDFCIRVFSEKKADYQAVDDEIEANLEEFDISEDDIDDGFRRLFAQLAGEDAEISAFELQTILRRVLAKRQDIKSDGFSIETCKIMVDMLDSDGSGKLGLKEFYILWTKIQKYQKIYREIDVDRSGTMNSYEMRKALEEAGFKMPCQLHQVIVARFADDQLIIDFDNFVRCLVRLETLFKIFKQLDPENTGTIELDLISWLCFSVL
UniProt Q8IX12: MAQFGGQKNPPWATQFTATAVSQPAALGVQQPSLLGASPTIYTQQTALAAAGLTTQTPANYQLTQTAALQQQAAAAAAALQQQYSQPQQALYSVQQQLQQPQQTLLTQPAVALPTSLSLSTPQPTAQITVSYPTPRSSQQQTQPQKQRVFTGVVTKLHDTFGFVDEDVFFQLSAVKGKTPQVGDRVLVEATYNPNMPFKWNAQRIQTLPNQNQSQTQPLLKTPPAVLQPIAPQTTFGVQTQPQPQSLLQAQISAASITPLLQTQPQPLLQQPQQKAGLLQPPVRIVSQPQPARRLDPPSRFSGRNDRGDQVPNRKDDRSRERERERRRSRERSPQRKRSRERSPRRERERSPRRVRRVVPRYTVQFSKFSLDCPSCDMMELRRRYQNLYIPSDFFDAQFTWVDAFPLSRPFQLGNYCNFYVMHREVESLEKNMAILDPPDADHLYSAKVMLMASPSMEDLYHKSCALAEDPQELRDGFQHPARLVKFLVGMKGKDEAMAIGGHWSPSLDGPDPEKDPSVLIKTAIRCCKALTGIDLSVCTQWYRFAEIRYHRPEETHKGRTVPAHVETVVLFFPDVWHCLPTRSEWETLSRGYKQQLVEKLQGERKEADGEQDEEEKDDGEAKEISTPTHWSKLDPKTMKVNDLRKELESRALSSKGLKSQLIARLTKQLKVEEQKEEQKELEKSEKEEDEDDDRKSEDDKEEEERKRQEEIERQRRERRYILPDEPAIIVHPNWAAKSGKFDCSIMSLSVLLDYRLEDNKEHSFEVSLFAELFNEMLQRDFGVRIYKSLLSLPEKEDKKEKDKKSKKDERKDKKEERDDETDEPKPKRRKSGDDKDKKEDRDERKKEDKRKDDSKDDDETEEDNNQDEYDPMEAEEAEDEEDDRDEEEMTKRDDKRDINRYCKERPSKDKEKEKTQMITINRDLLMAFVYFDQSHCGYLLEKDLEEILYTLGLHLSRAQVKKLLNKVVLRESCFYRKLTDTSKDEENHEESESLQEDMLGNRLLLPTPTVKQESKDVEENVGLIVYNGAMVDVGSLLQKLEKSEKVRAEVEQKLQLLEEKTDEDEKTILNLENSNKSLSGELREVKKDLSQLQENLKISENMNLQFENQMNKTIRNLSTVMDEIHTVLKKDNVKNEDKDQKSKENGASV
UniProt P13501: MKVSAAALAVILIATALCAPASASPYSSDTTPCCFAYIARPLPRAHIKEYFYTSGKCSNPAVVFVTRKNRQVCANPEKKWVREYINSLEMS
UniProt O60583: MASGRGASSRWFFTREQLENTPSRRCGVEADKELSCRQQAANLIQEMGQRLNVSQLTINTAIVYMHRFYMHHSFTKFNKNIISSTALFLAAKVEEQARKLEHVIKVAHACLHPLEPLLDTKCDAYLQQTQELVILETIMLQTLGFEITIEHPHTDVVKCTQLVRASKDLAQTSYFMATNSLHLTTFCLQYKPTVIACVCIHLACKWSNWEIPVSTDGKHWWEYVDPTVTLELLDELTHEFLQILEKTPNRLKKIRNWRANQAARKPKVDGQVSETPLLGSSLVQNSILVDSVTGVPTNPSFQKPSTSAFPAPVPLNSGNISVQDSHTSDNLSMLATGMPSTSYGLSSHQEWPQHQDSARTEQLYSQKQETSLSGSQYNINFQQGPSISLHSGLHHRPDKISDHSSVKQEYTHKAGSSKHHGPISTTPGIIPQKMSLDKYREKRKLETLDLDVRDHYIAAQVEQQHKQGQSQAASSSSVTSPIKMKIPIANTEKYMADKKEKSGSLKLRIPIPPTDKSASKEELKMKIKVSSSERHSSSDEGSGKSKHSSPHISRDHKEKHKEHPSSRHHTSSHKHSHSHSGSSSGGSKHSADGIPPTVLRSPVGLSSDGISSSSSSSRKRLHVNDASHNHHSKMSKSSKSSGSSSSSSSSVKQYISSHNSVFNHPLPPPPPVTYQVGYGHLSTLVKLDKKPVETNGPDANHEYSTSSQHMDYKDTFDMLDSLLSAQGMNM
UniProt P49589: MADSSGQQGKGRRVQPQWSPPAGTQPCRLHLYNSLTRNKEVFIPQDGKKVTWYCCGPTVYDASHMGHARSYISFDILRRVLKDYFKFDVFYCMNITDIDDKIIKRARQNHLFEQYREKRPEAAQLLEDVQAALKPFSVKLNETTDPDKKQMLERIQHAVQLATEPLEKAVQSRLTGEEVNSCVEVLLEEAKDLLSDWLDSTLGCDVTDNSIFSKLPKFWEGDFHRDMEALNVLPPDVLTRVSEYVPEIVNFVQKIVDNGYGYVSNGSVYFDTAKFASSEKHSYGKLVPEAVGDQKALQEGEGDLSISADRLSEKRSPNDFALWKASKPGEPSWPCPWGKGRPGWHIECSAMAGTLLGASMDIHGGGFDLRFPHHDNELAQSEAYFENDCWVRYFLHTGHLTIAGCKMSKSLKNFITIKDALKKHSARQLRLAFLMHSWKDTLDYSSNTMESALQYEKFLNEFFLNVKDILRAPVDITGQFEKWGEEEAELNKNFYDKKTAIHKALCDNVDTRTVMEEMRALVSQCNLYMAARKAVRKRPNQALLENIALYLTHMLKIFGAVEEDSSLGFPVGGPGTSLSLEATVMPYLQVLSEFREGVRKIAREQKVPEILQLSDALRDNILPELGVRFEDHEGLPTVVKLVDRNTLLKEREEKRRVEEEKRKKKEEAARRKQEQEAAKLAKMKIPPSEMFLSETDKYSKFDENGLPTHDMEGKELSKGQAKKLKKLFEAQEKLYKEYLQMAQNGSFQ
UniProt P49662: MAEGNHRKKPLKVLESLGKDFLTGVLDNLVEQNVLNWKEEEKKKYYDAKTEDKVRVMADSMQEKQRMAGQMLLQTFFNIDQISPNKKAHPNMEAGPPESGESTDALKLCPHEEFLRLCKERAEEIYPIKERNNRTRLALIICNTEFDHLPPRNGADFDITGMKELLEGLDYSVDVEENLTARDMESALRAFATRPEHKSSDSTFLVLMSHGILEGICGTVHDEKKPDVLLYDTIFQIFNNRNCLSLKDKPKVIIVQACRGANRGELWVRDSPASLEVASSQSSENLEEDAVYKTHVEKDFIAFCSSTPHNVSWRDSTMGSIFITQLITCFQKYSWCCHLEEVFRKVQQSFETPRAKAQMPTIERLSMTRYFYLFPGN
UniProt O95067, whole entry, looked up: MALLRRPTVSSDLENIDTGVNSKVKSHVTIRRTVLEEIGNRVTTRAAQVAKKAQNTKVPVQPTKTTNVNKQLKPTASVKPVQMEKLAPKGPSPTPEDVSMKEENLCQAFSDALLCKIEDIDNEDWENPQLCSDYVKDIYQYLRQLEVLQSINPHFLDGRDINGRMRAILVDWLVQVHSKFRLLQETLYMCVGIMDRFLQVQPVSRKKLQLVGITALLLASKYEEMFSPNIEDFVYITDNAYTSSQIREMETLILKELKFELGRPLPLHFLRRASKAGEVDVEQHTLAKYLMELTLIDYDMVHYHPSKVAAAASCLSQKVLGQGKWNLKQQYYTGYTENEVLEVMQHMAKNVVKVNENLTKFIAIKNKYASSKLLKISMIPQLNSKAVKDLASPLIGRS
UniProt P04040: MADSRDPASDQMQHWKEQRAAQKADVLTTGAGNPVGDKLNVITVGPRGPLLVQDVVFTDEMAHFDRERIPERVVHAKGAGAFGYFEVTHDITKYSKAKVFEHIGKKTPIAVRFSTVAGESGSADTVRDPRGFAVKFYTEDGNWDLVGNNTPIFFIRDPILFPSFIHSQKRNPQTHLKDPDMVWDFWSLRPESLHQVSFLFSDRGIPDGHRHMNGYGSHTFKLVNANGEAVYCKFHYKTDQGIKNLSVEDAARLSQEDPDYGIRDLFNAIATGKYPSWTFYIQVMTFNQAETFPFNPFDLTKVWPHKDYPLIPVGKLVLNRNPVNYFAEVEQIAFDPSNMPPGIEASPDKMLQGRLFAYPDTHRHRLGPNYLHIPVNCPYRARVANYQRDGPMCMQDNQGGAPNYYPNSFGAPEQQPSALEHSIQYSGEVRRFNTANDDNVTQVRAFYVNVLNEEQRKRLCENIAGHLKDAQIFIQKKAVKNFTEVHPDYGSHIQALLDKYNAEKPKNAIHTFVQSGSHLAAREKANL

Compound in the assay: CC1Cc2ccccc2N1C(=O)C1CCCN(C1)C(=O)CCl (mixture of isomers) [TRIM25 ligand 11 (diastereomer mixture)]
As to the kind of experiment: probe-labelled cysteine peptide fold change vs DMSO (competition) (log2 fold change); higher = less target engagement (more negative = stronger competition). The settings on record: THP-1, incubation time: 4 h.
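Note: competitive chemoproteomic profiling in live THP-1 cells with an iodoacetamide desthiobiotin (IA-DTB) probe, comparing probe-labelled peptide intensities in compound-treated cells against DMSO-treated controls.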

For “CCT3_P49368_366_IGDEYFTFITDCKDPK (UniProt P49368)”, the “probe-labelled cysteine peptide fold change” value is -0.283 (10 µM) and -0.235 (50 µM).
As to “CAPN2_P17655_498_DGDFCIR (UniProt P17655)”, the “probe-labelled cysteine peptide fold change” value is, setting by setting: (10 µM) 0.00623; (50 µM) 0.1.
For “CCAR1_Q8IX12_465_SCALAEDPQELRDGFQHPAR (UniProt Q8IX12)”, in that order: -0.476 and -0.0931.
“CCL5_P13501_57_CSNPAVVFVTR (UniProt P13501)”: the “probe-labelled cysteine peptide fold change” value is -0.101 (10 µM) and -0.209 (50 µM).
As to “CCT3_P49368_372_ACTILLR (UniProt P49368)”, the “probe-labelled cysteine peptide fold change” value is 0.159 (10 µM) and 0.0493 (50 µM).
On the same counts, the results for “CCNT2_O60583_26_CGVEADK (UniProt O60583)” are -0.0339 and -0.0758.
On the same counts, the results for “CAPN2_P17655_405_LEEEDEDEEDGESGCTFLVGLIQK (UniProt P17655)” are -0.0215 and -0.085.
Regarding “CCAR2_Q8N163_644_PLSSGGEEEEKPRGEASEDLCEMALDPELLLLR (UniProt Q8N163)”, the “probe-labelled cysteine peptide fold change” value is 0.425 (10 µM) and 0.0687 (50 µM).
For “CARS_P49589-3_81_HIEALLGSPCGK (UniProt P49589)”, in that order: -0.0595 and -0.0785.
On the same counts, the results for “CASP4_P49662_109_LCPHEEFLR (UniProt P49662)” are 0.0416 and 0.175.
For “CCT3_P49368_366_KIGDEYFTFITDCKDPK (UniProt P49368)”, the “probe-labelled cysteine peptide fold change” value is, setting by setting: (10 µM) -0.323; (50 µM) -0.183.
On the same counts, the results for “CAPZA2_P47755_157_IDGQQTIIACIESHQFQAK (UniProt P47755)” are 0.13 and 0.153.
On to “CCNB2_O95067_314_VAAAASCLSQK (UniProt O95067)”, for which the “probe-labelled cysteine peptide fold change” value is, setting by setting: (10 µM) 0.054; (50 µM) 0.0978.
On the same counts, the results for “CAT_P04040_232_LVNANGEAVYCK (UniProt P04040)” are 0.119 and 0.194.
Turning to “CAST_P20810_661_KPADDQDPIDALSGDLDSCPSTTETSQNTAK (UniProt P20810)”, the “probe-labelled cysteine peptide fold change” value runs as follows: (10 µM) -0.148; (50 µM) -0.245.

For the origin of these results see the supplement of paper PMC12067093, “Discovery and optimisation of a covalent ligand for TRIM25 and its application to targeted protein ubiquitination” (Chemical Science, 2025).
